US8450266B2 (Ipsen Pharma S.A.S., priority 2008, dated 2013)
Some peptides are written in HELM: one residue between dots, names in brackets for other building blocks, links after the first $. [ ]: non-standard residue; d: D form. The star is where a group is joined. Decanoyl = CCCCCCCCCC(=O)*; Ac6c = NC1(C(=O)O)CCCCC1; Orn = NCCC[C@H](N)C(=O)O; Hexanoyl = CCCCCC(=O)*

Test: general procedure: Fmoc solid-phase peptide synthesis; Pre-loaded Fmoc-Gln(Trt)-Wang resin (0.59 mmole/g; Novabiochem); Rink amide MBHA resin for amides; HBTU/DIPEA
Conditions: whole synthesis

Substance | isolated mass [mg]
[Ac-A6c^7, Cys(Hsu)^31]hGIP(7-42)-OH | 28.1
[Ac-A6c^7, Orn^31(N-C(O)-(CH2)12-CH3)]hGIP(7-42)-OH | 3

Same assay, conditions: whole synthesis, analytical HPLC, 250×4.6 mm C18 column (Phenomenex), 2-80% acetonitrile (0.1% TFA) over 30 minutes, scale of the general procedure 0.1 mmole

Substance | final HPLC purity [%] | crude HPLC purity [%]
(4Hppa^2, 4Hyp^3, A6c^7)hGIP(2-42)-OH | 99.90 | –
(4Hppa^2, A6c^11)hGIP(2-42)-OH | 99.90 | –
(4Hppa^2, A6c^14)hGIP(2-42)-OH | 99.90 | –
(4Hppa^2, Aib^13)hGIP(2-42)-OH) | 99.90 | –
(4Hppa^2, Pro^3, Nle^14)hGIP(2-42)-OH | 99.90 | –
(A5c^7, Nle^14)hGIP(6-30)-NH2 | 96.83 | –
(A6c^7, Nle^14)hGIP(6-30)-NH2 | 99.90 | –
(Ac-4Hyp^3, A6c^7)hGIP(3-42)-OH | 99.90 | –
(Ac-A6c^7, 2Nal^31)hGIP(7-42)-OH | 99.10 | –
(Ac-A6c^7, Cys(Psu)^31]hGIP(7-34)-NH2 | 99.90 | –
(Ac-A6c^7, D-2Nal^31)hGIP(7-42)-OH | 99.90 | –
(Ac-A6c^7, Gln^43)hGIP(7-43)-OH | 99.90 | –
(Ac-Phe^6, A6c^7)hGIP(6-30)-NH2 | 99.90 | –
(Aib^11, Nle^14)hGIP(6-30)-NH2 | 97.20 | –
Ac-[Ac6c]SDYSIAMDKIHQQDFVNWLLAQKGKK[Orn](Decanoyl)DWKHNITQ-OH | 95.50 | –
Ac-[Ac6c]SDYSIAMDKIHQQDFVNWLLAQK[Orn](Decanoyl)KKNDWKHNITQ-OH | 96.70 | –
Ac-[Ac6c]SDYSIAMDKIHQQDFVNWLLAQK[Orn](Hexanoyl)KKNDWKHNITQ-OH | 96.20 | –
Decanoyl-[Ac6c]SDYSIAMDKIHQQDFVNWLLAQK[Orn](Decanoyl)KKNDWKHNITQ-OH | 95.00 | –
H-SDYSIAMDKIHQQDFVNWLLAQK[Orn](Decanoyl)KKNDWKHNITQ-OH | 99.90 | –
H-[Ac6c]SDYSIAMDKIHQQDFVNWLLAQK[Orn](Decanoyl)KKNDWKHNITQ-OH | 99.90 | –
H-[Ac6c]SDYSIAMDKIHQQDFVNWLLAQK[Orn](Hexanoyl)KKNDWKHNITQ-OH | 99.90 | –
Hexanoyl-[Ac6c]SDYSIAMDKIHQQDFVNWLLAQK[Orn](Hexanoyl)KKNDWKHNITQ-OH | 95.70 | –
PEPTIDE1{[ac].[A6c].S.D.Y.S.I.A.M.D.K.I.H.Q.Q.D.F.V.N.W.L.L.A.Q.K.G.K.K.N.D.W.K.H.N.I.T.Q}$$$$V2.0 | 96.70 | –

Substance | final HPLC purity [%] | crude HPLC purity [%]
[A6c^7, Cys(Hsu)^31]hGIP(7-42)-OH | 95.80 | –
[A6c^7, Cys(Psu)^31]hGIP(6-31)-NH2 | 98.20 | –
[A6c^7, Cys(Psu)^31]hGIP(6-42)-OH | 95.10 | –
[A6c^7, Orn^34(N-C(O)-(CH2)8-CH3)]hGIP(7-42)-OH | 99.90 | –
[Ac-A6c^7, Cys(Psu)^31]hGIP(7-31)-NH2 | 96.40 | –
[Ac-A6c^7, Cys(Psu)^31]hGIP(7-42)-OH | 99.90 | –
[Ac-A6c^7, Cys(Psu)^32]hGIP(7-42)-OH | 99.90 | –
[Ac-A6c^7, Cys(Psu)^33]hGIP(7-42)-OH | 99.90 | –
[Ac-A6c^7, Cys(Psu)^34]hGIP(7-42)-OH | 99.90 | –
[Ac-A6c^7, Cys(Psu)^35]hGIP(7-42)-OH | 99.90 | –
[Ac-A6c^7, Cys(Psu)^36]hGIP(7-42)-OH | 99.90 | –
[Ac-A6c^7, Cys(Psu)^37]hGIP(7-42)-OH | 98.40 | –
[Ac-A6c^7, Cys(Psu)^38]hGIP(7-42)-OH | 99.90 | –
[Ac-A6c^7, Cys(Psu)^39]hGIP(7-42)-OH | 99.90 | –
[Ac-A6c^7, Orn^31(N-C(O)-(CH2)12-CH3)]hGIP(7-42)-OH | 95.20 | 37
[Ac-Asp^9, Cys(Psu)^33]hGIP(9-42)-OH | 99.90 | –
[Ac-Phe^6, A6c^7, Cys(Psu)^31]hGIP(6-31)-NH2 | 96.30 | –
[Ac-Phe^6, A6c^7, Cys(Psu)^31]hGIP(6-42)-OH | 96.40 | –
[Aib^2, A5c^11, Nle^14, Lys^43(N-C(O)-(CH2)10-CH3)]hGIP(2-43)-OH | 99.9 | –
[CH3-(CH2)4-C(O)-Ser^8, Cys(Psu)^31]hGIP(8-42)-OH | 96.40 | –
[CH3-(CH2)8-C(O)-A6c^7, Orn^34(N-C(O)-(CH2)8-CH3)]hGIP(7-42)-OH | 95.30 | –
[Chc-Ser^8, Cys(Psu)^31]hGIP(8-42)-OH | 96.90 | –

Same assay, conditions: whole synthesis, analytical HPLC, 250×4.6 mm C18 column (Phenomenex), 2-80% acetonitrile (0.1% TFA) over 30 minutes, scale of the general procedure 0.1 mmole; run 1

Substance | final HPLC purity [%]
[Ac-A6c^7, Cys(Hsu)^31]hGIP(7-42)-OH | 95.4
[Ac-A6c^7, Cys(Psu)^40]hGIP(7-42)-OH | 95.2

Same assay, conditions: whole synthesis, analytical HPLC, 250×4.6 mm C18 column (Phenomenex), 2-80% acetonitrile (0.1% TFA) over 30 minutes, scale of the general procedure 0.1 mmole; run 2

Substance | final HPLC purity [%]
[Ac-A6c^7, Cys(Hsu)^31]hGIP(7-42)-OH | 95.40
[Ac-A6c^7, Cys(Psu)^40]hGIP(7-42)-OH | 95.20

Same assay, conditions: whole synthesis, scale of the general procedure 0.1 mmole

Substance | isolated yield [%]
[Ac-A6c^7, Cys(Hsu)^31]hGIP(7-42)-OH | 6.1
[Ac-A6c^7, Cys(Psu)^40]hGIP(7-42)-OH | 1
[Ac-A6c^7, Orn^31(N-C(O)-(CH2)12-CH3)]hGIP(7-42)-OH | 0.6
